Source: patent US12070031B2 (priority 2020, dated 2024)
Structures can show the parent of a compound that is named as a salt.

Test system: citrus leaves
Test: Rainfastness assay on citrus leaves
Parameters: species or system Citrus reshni
[1] = 500 μg/mL streptomycin, leaves submerged 30 seconds in DI water

[H]/N=C(/N)N[C@H]1[C@H](O)[C@@H](O)[C@H](O[C@@H]2O[C@@H](C)[C@](O)(C=O)[C@H]2O[C@@H]2O[C@@H](CO)[C@H](O)[C@@H](O)[C@@H]2NC)[C@@H](N/C(N)=N\[H])[C@@H]1O [Streptomycin sulfate, streptomycin sulfate]
loss of streptomycin after the first wash [1]: Around 50%
streptomycin remaining after the second wash [1]: 30%
extraction efficiency of streptomycin from the leaf surface (unwashed leaves): 98%
